This note sets out measurements from paper PMC6804006, “Synthesis, Biological Activities and Docking Studies of Novel 4-(Arylaminomethyl)benzamide Derivatives as Potential Tyrosine Kinase Inhibitors” (Molecules, 2019).

Format in all cases: cell-based
The subject of assay [1] is HeLa (cervix carcinoma). Kind of assay: MTT anti-proliferative assay, HeLa. Particulars: Homo sapiens, 48 h, 50% growth inhibition. The method, then:
(§1) Each in vitro experiment was performed at least in triplicate, and the standard deviation of absorbance was less than 10% of the mean. For the in vitro assays, a stock solution (1% DMSO in the appropriate buffer with the tested compound diluted under sonication) was prepared from which several dilutions were made with the appropriate buffer.
(§2) Human cell lines were obtained from the Institute of Cytology, Russian Academy of Sciences. The cell lines studied were maintained in RPMI 1640 medium (AppliChem, Darmstadt, Germany) supplemented with 20% (HL-60, RPMI 1788) fetal calf serum (HyClone, Cramlington, UK), in DMEM (A 549) and Eagle’s MEM (AppliChem) (MCF7, HeLa) with 10% fetal calf serum (HyClone). Cells were cultivated at 37 °C in a humidified atmosphere of 5% CO2. Cellular sensitivities to clofarabine and its lipid derivatives were measured with the MTT assay. Cells were plated in triplicate in 96-well plates (10^5 cells/well for suspended cell cultures and 5 × 10^3 cells/well for monolayer cultures); on the same day (suspended cell cultures) or on the following day (monolayer cultures), compounds were added at the appropriate dilutions. […] The optical density was read on a HALO MPR-95 Microplate Reader (Dynamica Scientific Ltd., Australia) at 570 nm. The antiproliferative effects were determined as degrees of inhibition of tumor cells (%).
In general terms: Tetrazolium assays rely on reduction of a dye to a coloured formazan, in cell work by metabolically active cells.

For assay [2], the system named is K-562 (chronic myelogenous leukemia). In words: MTT anti-proliferative assay, K-562. Particulars: Homo sapiens, K562, 48 h, 50% growth inhibition. The method, then: as §1, §2
Assay [3] deals with A549 (lung carcinoma). Kind of assay: MTT anti-proliferative assay, A-549. As to conditions: Homo sapiens, 48 h, 50% growth inhibition. The method, then: as §1, §2
For assay [4], the system named is OKP-GS (carcinoma of the kidney). Kind of assay: MTT anti-proliferative assay, OKP-GS. Particulars: Homo sapiens, 48 h, 50% growth inhibition. The method, then: as §1, §2
The test system of assay [5] is HL-60 (promyelocytic leukemia). Kind of assay: MTT anti-proliferative assay, HL-60. As to conditions: Homo sapiens, HL-60, 48 h, 50% growth inhibition. The method, then: as §1, §2
Assay [6] deals with MCF-7 (breast adenocarcinoma). Kind of assay: MTT anti-proliferative assay, MCF-7. Particulars: Homo sapiens, MCF7, 48 h, 50% growth inhibition. The method, then:
as §1, §2

As for `Cc1ccc(NC(=O)c2ccc(CN3CCN(C)CC3)cc2)cc1Nc1nccc(-c2cccnc2)n1` [Imatinib, reference compound], the half-inhibitory concentration (IC50) (commonly the point on the concentration scale where inhibition reaches its midpoint) in assay [1] came to 45.8 µM; in assay [2], 0.41 µM; in assay [3] it was 54 µM; in assay [4] it was 48 µM; in assay [5], 44.5 µM; in assay [6] it was 49 µM.
